# Laboratory results as given in paper PMC7819943, “Rice protein-binding microarrays: a tool to detect cis-acting elements near promoter regions in rice”.
# Protein sequences, listed by entry. Tags and fused reporters are not part of them.
# UniProt Q0JBA9, entry or part of it: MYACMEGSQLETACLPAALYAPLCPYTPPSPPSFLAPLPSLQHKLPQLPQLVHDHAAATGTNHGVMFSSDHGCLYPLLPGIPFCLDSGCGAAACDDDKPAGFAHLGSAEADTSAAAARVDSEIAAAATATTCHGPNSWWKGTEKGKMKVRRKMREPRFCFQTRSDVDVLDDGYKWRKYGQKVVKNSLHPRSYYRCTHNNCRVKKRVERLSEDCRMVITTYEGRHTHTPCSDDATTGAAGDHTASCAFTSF
# This is one part of the list.
# Biological target: OsWRKY34 (Oryza sativa, UniProt Q0JBA9 1-250)
# Assay: protein-binding microarray (RPBM); PBS, 2% BSA, 51.3 ng/ul salmon testes DNA, 50 uM zinc acetate, 200 nM TF, 25 C, 1 h; high values mean tight binding
# Conditions: protein: recombinant; tags: N-terminal polyhistidine and DsRed monomer fusion (pET32a); label: CyDye5-dUTP incorporated in the synthesized complementary strand; 3' TTTTT single-stranded linker to array surface; dsDNA, one strand shown
# Procedure, shortened: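 In PBS with 2% BSA, salmon testes DNA and 50 µM zinc acetate, 200 nM protein was incubated on a custom Agilent array at 25 °C for 1 h and then washed off. The array had been made double-stranded by primer extension with Cy5-dUTP and blocked with 2% BSA. The proteins were transcription factors fused N-terminally to polyhistidine and DsRed, expressed in E. coli BL21-CodonPlus and purified on Ni–NTA. The binding signal is per-feature fluorescence intensity (arbitrary units) from an Axon 4000B scanner.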
row,Sequence,binding signal
1,GTAAATCCGCTCCAATTGACTCTACCAACCCACCCGTGCTCGGAGTCACCTAGTGCAG,9420 fluorescence intensity (a.u.)
2,GAGGCTGCATCTACCGCATCAGTTTGGTCATCGATCTTCACGGAGTCACCTAGTGCAG,10300 fluorescence intensity (a.u.)
3,CGCTTTCCAATTACCACACTTTCTTTCTTCTCTGAATGTACGGAGTCACCTAGTGCAG,9650 fluorescence intensity (a.u.)
4,ACTGCAACTACTACTACTTTCTTTTATTTATAGCTACTTACGGAGTCACCTAGTGCAG,13400 fluorescence intensity (a.u.)
5,GTGCACACAACGCTTATAGACAACACATATCACATTCTTTCGGAGTCACCTAGTGCAG,8460 fluorescence intensity (a.u.)
6,TTAGCCTCCGTTAACACTGTACAATTTTGTCCAAATGACCCGGAGTCACCTAGTGCAG,8530 fluorescence intensity (a.u.)
7,CTACACATACAAGGCACACACATCCCATGCTACTAGTGCTCGGAGTCACCTAGTGCAG,8120 fluorescence intensity (a.u.)
8,GGTCAAATATATTTTAAAAAGTCAACGGCGTCAAACATTTCGGAGTCACCTAGTGCAG,10600 fluorescence intensity (a.u.)
9,TTGCGTGGCCTCGCCTGCCCTTGTTCACCTCACCTCAGCTCGGAGTCACCTAGTGCAG,8710 fluorescence intensity (a.u.)
10,CAGTGGCTTGTGCATGCTCCTTTCTCCAATTTCATTATTACGGAGTCACCTAGTGCAG,8630 fluorescence intensity (a.u.)
11,ACTGAGGGAGGGGCACTTCCGTCATTTCGTATAAGCGTATCGGAGTCACCTAGTGCAG,9700 fluorescence intensity (a.u.)
12,CGGGGCCATCTACCTTCTCATTCACCTCTGCACATCGTCGCGGAGTCACCTAGTGCAG,11000 fluorescence intensity (a.u.)
13,TAATGAGACCGATTGCTTTTTCTTTAGTTTGATATATATACGGAGTCACCTAGTGCAG,8360 fluorescence intensity (a.u.)
14,ACTTTCACGCTCATCGCCACGTCGACTTTCTCCGCTACAACGGAGTCACCTAGTGCAG,11900 fluorescence intensity (a.u.)
15,CATTCATTTGTTTTATTACTGTCTAAACACAGTCACCTTTCGGAGTCACCTAGTGCAG,8420 fluorescence intensity (a.u.)
16,GTCCATCCATTGTCACCAGATACCATTCATATACAAATTTCGGAGTCACCTAGTGCAG,10300 fluorescence intensity (a.u.)
17,AAAACCACCTGGAATTACCTACAGCCTTGCTAAAGATTTTCGGAGTCACCTAGTGCAG,9870 fluorescence intensity (a.u.)
18,CCCTCACTGCCTCTCTCCTGAGACCGACAGCACTCATCTGCGGAGTCACCTAGTGCAG,8420 fluorescence intensity (a.u.)
19,AACCTTTTATTCCTTCTTTCTACTTGCACTTTACTATATTCGGAGTCACCTAGTGCAG,10500 fluorescence intensity (a.u.)
20,TTTCTGTTTAACGTCAACCCGGCTGTTTTCGCCCGGTCAACGGAGTCACCTAGTGCAG,9040 fluorescence intensity (a.u.)
21,AGTACTCCAGCAGACCAGCACATTCATTTCGTTAATTATACGGAGTCACCTAGTGCAG,11800 fluorescence intensity (a.u.)

row,Sequence,binding signal
1,TCTTGCGTTTCGATTTCTTTTTATTATTTTCCTGAGAGAGCGGAGTCACCTAGTGCAG,8630 fluorescence intensity (a.u.)
2,TTAGTTTTCTGTTTGCTACACTGAGGTGGTTTTCATGTCACGGAGTCACCTAGTGCAG,10100 fluorescence intensity (a.u.)
3,TTCATCTCCGCGACCGAAGTCCACTGCCTAGTCGTCACATCGGAGTCACCTAGTGCAG,8830 fluorescence intensity (a.u.)
4,TTTGCGCCGTTGACTCTGCCGCGTATTGCTCGGTACTCCACGGAGTCACCTAGTGCAG,12500 fluorescence intensity (a.u.)
5,CTACTATACGTCGATGGGGAGGGAGGGAGGGTGGCTGTAGCGGAGTCACCTAGTGCAG,26400 fluorescence intensity (a.u.)
6,AATCTTCTGCCATGCTCAAATTTGGCTTTCTGTGCACTGTCGGAGTCACCTAGTGCAG,9110 fluorescence intensity (a.u.)
7,GCTTTCGTGATTACGACTTACCGTCGTGCTGCGCCCTTCACGGAGTCACCTAGTGCAG,8700 fluorescence intensity (a.u.)
8,ATGTGTTGTATGAATGTTGTCAATTTTTTCCAGATTTTTTCGGAGTCACCTAGTGCAG,10700 fluorescence intensity (a.u.)
9,CGTTCGATTTAACTTCCCGTCTTGTTAAGCTTGGCCACATCGGAGTCACCTAGTGCAG,13700 fluorescence intensity (a.u.)
10,TCGACCGCATCTCATCTCATCTCACCGTTGGATCGCGCGCCGGAGTCACCTAGTGCAG,9670 fluorescence intensity (a.u.)
11,ATTTTGGGTTGCCAAGTTAGGCCAATAAGGGGAGGGATTTCGGAGTCACCTAGTGCAG,8110 fluorescence intensity (a.u.)
12,TTACACATTTCTTTTTCATCACTGCTGATATGTTATCCTTCGGAGTCACCTAGTGCAG,9940 fluorescence intensity (a.u.)
13,CGTTGTCCCACTTCGCCTGGCTGCTCCGCTTGCCGCCATCCGGAGTCACCTAGTGCAG,8880 fluorescence intensity (a.u.)
14,ATCGTCGTCTCCTTCGGCTCGCGTCGCCACTGCCGCCGCTCGGAGTCACCTAGTGCAG,10500 fluorescence intensity (a.u.)
15,CCGCCATTTTTCTTCTCATCGTCTCCACCGCGCGCGCCACCGGAGTCACCTAGTGCAG,9390 fluorescence intensity (a.u.)
16,CACCATCCCAAAATATTTGACGCCGTTGACTTTTTTAAAACGGAGTCACCTAGTGCAG,14000 fluorescence intensity (a.u.)
17,AGGTGTGTGAATTGTGATGGAGGGAGAGAGAGAGAGATAGCGGAGTCACCTAGTGCAG,8440 fluorescence intensity (a.u.)
18,GTCGTCAACCGCTGCTTGCTTATAAGTATCATGAGAAGAACGGAGTCACCTAGTGCAG,8410 fluorescence intensity (a.u.)
19,CACACACAACTTCAGATCAATTTCGATACACCCTCCGAGACGGAGTCACCTAGTGCAG,8090 fluorescence intensity (a.u.)
20,CTGTATGGCCACCGTCGCAGCTCGTCCTACACGTTTCTCACGGAGTCACCTAGTGCAG,10600 fluorescence intensity (a.u.)
21,TTTAATTCTAGAATCATGTATTTTTCCTATTCCTCTATTTCGGAGTCACCTAGTGCAG,8040 fluorescence intensity (a.u.)

# Look-ups from the results shown:
# binding signal with TTCATCTCCGCGACCGAAGTCCACTGCCTAGTCGTCACATCGGAGTCACCTAGTGCAG is entered as 8830 fluorescence intensity (a.u.)
# binding signal with AGTACTCCAGCAGACCAGCACATTCATTTCGTTAATTATACGGAGTCACCTAGTGCAG is entered as 11800 fluorescence intensity (a.u.)
# binding signal with ACTTTCACGCTCATCGCCACGTCGACTTTCTCCGCTACAACGGAGTCACCTAGTGCAG is entered as 11900 fluorescence intensity (a.u.)

# Additional results.

row,Sequence,binding signal
1,GACAAACAACAGTCCACGTCACCTTTATCCATCTTTTTTTCGGAGTCACCTAGTGCAG,9020 fluorescence intensity (a.u.)
2,TGTATATCTGCTACCTCAACATTTTTCTCACCCACCGACCCGGAGTCACCTAGTGCAG,8220 fluorescence intensity (a.u.)
3,GCTGGTAGTGGACACAGAGAGTTCTGCACTCTCTTTCACTCGGAGTCACCTAGTGCAG,9320 fluorescence intensity (a.u.)
4,TAAATATTTGACACCGTTGACTTTTTACACATATTTGACCCGGAGTCACCTAGTGCAG,35100 fluorescence intensity (a.u.)
5,TTGTTGCAGCCTCGCAGTAAGATTCCTTGTTTTTCTTAGCCGGAGTCACCTAGTGCAG,8620 fluorescence intensity (a.u.)
6,ACGTTGTGTCGCGGCAAAGGTATGTTTGGTCTTTTCTGAGCGGAGTCACCTAGTGCAG,8570 fluorescence intensity (a.u.)
7,TGGCTTCCCCGGTCACTGCACCACCACCGGCACCGGCAACCGGAGTCACCTAGTGCAG,8580 fluorescence intensity (a.u.)
8,CTCTCATGCCACTACCGTCAGTTGACCGTGCGTTGATCGTCGGAGTCACCTAGTGCAG,10500 fluorescence intensity (a.u.)
9,TCCCGCATATTACTCGTCGCCACCGCGGTCACCGCCCCTCCGGAGTCACCTAGTGCAG,9000 fluorescence intensity (a.u.)
10,TATTAGTTACGGTGGTGTTATTCCTTGGTTTGTCTAGTTTCGGAGTCACCTAGTGCAG,15900 fluorescence intensity (a.u.)
11,CGCCACTTGTCTTCGTCTTCCAGCTCCGCGCACCACCCACCGGAGTCACCTAGTGCAG,9470 fluorescence intensity (a.u.)
12,TCCAACCTCTCATACACACATAATGTCCGTGCTGCATTCCCGGAGTCACCTAGTGCAG,9110 fluorescence intensity (a.u.)
13,CCCCTCCGCCTCAACCCGCACACTTGTCCGGCCCAAAAAGCGGAGTCACCTAGTGCAG,8380 fluorescence intensity (a.u.)
14,GGGCGCTTGGTGGCGGTGGGGCGTCGAGGGCGGGCGGCAGCGGAGTCACCTAGTGCAG,13300 fluorescence intensity (a.u.)
15,CCGCTCTCTTGCCGTTACTCATGCCCCTCGGTGAAGACGACGGAGTCACCTAGTGCAG,8760 fluorescence intensity (a.u.)
16,TCCTATAAACTCCCACTGACAACTGGGACCCGCATATCCGCGGAGTCACCTAGTGCAG,9180 fluorescence intensity (a.u.)
17,ATGCGGCGGTGGCGGGAGGGAGGGACAGGGTTGGTGAAGTCGGAGTCACCTAGTGCAG,17400 fluorescence intensity (a.u.)
18,CTCCTTCGTCGCCTCTGCGACCGCCACGCGCCACCCATCTCGGAGTCACCTAGTGCAG,9570 fluorescence intensity (a.u.)
19,TGACTAGCTATTTTTCCATTTCTTTTTGGCGGCTAACTGGCGGAGTCACCTAGTGCAG,8260 fluorescence intensity (a.u.)
20,CAATGTTTGTTGACTTGCCAATCCGACCGATTTGCCAGTTCGGAGTCACCTAGTGCAG,8810 fluorescence intensity (a.u.)
21,ACACCTGCCATTATACTATAGATCCGCTCCTGCTCTTCCACGGAGTCACCTAGTGCAG,9120 fluorescence intensity (a.u.)

row,Sequence,binding signal
1,TGCTTATTATTACACTTATTTGTTCAAAGCTACTGTTAGTCGGAGTCACCTAGTGCAG,8440 fluorescence intensity (a.u.)
2,CTTCCTTTTTTTTACACCAATTGTTTTTTTTCTAGTAGATCGGAGTCACCTAGTGCAG,8430 fluorescence intensity (a.u.)
3,CCGAAATCCCCAAAATTTTGGTCTTTTACTCGCACTCTTGCGGAGTCACCTAGTGCAG,8250 fluorescence intensity (a.u.)
4,ACTGTCTCTCACTTAGCTGTTGCTAGCTGTCCCCTTTCCCCGGAGTCACCTAGTGCAG,8160 fluorescence intensity (a.u.)
5,ACTTTTACATAGAATTTTTTTTTGAACACACCGTTTAGCACGGAGTCACCTAGTGCAG,8510 fluorescence intensity (a.u.)
6,CCCATCATCCGCCCATGTCCCTGATTGATTGAAATTCATTCGGAGTCACCTAGTGCAG,8340 fluorescence intensity (a.u.)
7,TGGGATGTATGGCTCGTGTCGGCTGCAGCAACGCCGACCTCGGAGTCACCTAGTGCAG,8120 fluorescence intensity (a.u.)
8,CTCTCATTTTTATTACACATTGATTGATATCTGCAGCAAGCGGAGTCACCTAGTGCAG,10100 fluorescence intensity (a.u.)
9,TTGTCGATGTTGAAGCACCTTAATAACTTCATCAATTTCACGGAGTCACCTAGTGCAG,8030 fluorescence intensity (a.u.)
10,ATTGAACTGAGAGTATACTACTCCTACTTTGCTTTTCTGCCGGAGTCACCTAGTGCAG,8120 fluorescence intensity (a.u.)
11,GGGGCAGACCTTCCTGTGGCGCCGCACGTCTCTCTCCCCGCGGAGTCACCTAGTGCAG,8630 fluorescence intensity (a.u.)
12,AAAACTGACTATCATCTGGCCATTCTCAGCTCCCCGAAACCGGAGTCACCTAGTGCAG,8900 fluorescence intensity (a.u.)
13,TATGGTGCTAAAAAAGAAAACCAGGTGGAGGGAGGGGAGGCGGAGTCACCTAGTGCAG,9500 fluorescence intensity (a.u.)
14,CATCCGGTATTAAAAGTTTAGGGTGGGCAATATCTGGTTTCGGAGTCACCTAGTGCAG,13300 fluorescence intensity (a.u.)
15,CTCTATGTGTGGCTTATATTTTTAATTTTTTTAAAAAATTCGGAGTCACCTAGTGCAG,8690 fluorescence intensity (a.u.)
16,GAGTATTCCATTTCCAAAATTGTGTGGTCTGGCCTTTCTCCGGAGTCACCTAGTGCAG,9570 fluorescence intensity (a.u.)
17,AGCATTCCTTCTAGTTCATTTTCTTGTCCTACTCGGAGGGCGGAGTCACCTAGTGCAG,11500 fluorescence intensity (a.u.)
18,TTTAGTTGTTGTTTAAGCTCAACCTCTGTTTGTGTTGATACGGAGTCACCTAGTGCAG,9400 fluorescence intensity (a.u.)
19,GTGATTTGTTCTATATATTGACTCTTAATTAATGAGTTGACGGAGTCACCTAGTGCAG,8940 fluorescence intensity (a.u.)
20,AGAATTTCTGTTGTTCTGCTCTAGTATTTTTACGCCAACTCGGAGTCACCTAGTGCAG,10700 fluorescence intensity (a.u.)
21,CATGTTTTGAGTATGCTGTTCCCTTGTTTCTGTTTTGATTCGGAGTCACCTAGTGCAG,9010 fluorescence intensity (a.u.)
